According to publication PMC4459816:
These are yes or no findings as the source states them, for the method shown. Binding seen in cells or lysates may run through a third protein. Some binding calls cover weakened binding; strength is not graded here.

The chains behind the UniProt entries cited, without tags or fusion partners.
UniProt P39688: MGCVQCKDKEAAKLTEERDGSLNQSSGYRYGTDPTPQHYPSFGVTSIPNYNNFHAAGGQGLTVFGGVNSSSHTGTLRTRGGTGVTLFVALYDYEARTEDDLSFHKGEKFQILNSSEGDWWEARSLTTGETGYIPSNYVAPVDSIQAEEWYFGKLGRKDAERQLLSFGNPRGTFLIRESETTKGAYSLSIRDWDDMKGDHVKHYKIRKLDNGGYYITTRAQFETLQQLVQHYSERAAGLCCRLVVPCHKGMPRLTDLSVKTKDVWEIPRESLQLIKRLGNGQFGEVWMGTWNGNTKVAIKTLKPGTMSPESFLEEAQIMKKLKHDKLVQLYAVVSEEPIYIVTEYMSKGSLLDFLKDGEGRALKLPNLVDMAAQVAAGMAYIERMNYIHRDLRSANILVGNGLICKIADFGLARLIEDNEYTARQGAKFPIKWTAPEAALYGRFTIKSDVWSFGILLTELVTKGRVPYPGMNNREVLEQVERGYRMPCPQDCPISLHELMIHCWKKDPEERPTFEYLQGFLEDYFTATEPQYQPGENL

Molecular target: Fyn (mouse (endogenous in CD8+ CTLs)) (UniProt P39688)
Test: co-IP; endogenous proteins; CD8+ CTLs stimulated with hydrogen peroxide and sodium orthovanadate; lysates incubated with various antibodies and protein G-coupled sepharose beads; immunoblotting with antibodies against SKAP55, ADAP and Fyn

Row | binding | Binder
1 | binds | SKAP55 (src kinase-associated protein of 55 kDa) (protein, UniProt Q3UUV5 1-355) MQAVALPEEICWLLEDTEDFLAEGLQNENLSPGAQDQRAHILRGFQQIKSRYCWDFQPQGGDLGQDGSDDNLSGTHGPPLTSEASFWSDYQDEGIEDILRGAQELDSVIKQGYLEKKSKDHSFFGSEWQKRWCVISRGLFLYYANEKSKQPKGTFLIKGYSVRMAPHLRKDSKKESCFELISQDRRSYEFTASSPAEARDWVDQISFLLKDLSSLTIPFEEEEEEEEEEEKEEEEMYNDVDGFDSPRSGSQCRAMALPEPTEKEEDIYEVLPDDDDLEEDTCGAHRRRVDYADYYQGLWDCHGDQPDELSFQRGDLIRILSKEYNMYGWWVGELNSVIGIVPKDYLTTAFEMEGI
2 | binds | ADAP (adhesion and degranulation promoting adaptor protein) (protein, UniProt O35601 1-819) MAKFNTGSNPTEEAATSSRPFKVAGQSSPSGIQSRKNLFDNQGNASPPAGPSSMPKFGTTKPPLAAKPTYEEKPEKEPKPPFLKPTGGSPRFGTQPNSVSRDPEVKVGFLKPVSPKPTSLTKEDSKPVVLRPPGNKLHNLNQESDLKTPGPKPGPAPPVPENELKPGFSKVAGAKSKFMPAAQDTDSKPRFPRHTFGQKPSLSTEDSQEENTSKNVPVQKGSPVQLGAKSKGAPFKPPKEDPEDKDHGAPSSPFPGVVLKPAASRGSPGLSKNFEEKKEDRKTDLAKNIFLNKLNQEEPARFPKAPSKLTAGTPWGQSQEKEGDKNSATPKQKALPPLSVLGPPPPKPNRPPNVDLTRFRKADSANSATKSQTPYSTTSLPPPPPTHPASQPPLPASHPAHPPVPSLPPRNIKPPLDLKHPINDENQDGVMHSDGTGNLEEEQESEGETYEDIDSSKERDKKREKEEKKRLELERKEQKEREKKEQELKKKFKLTGPIQVIHHAKACCDVKGGKNELSFKQGEDIEIIRITDNPEGKWLGRTARGSYGYIKTTAVEIDYDSLKRKKNSLNAVPPRLVEDDQDVYDDVAEQDAPNSHGQSGSGGMFPPPPTDDEIYDGIEEEDDDDGSVPQVDEKTNAWSWGILKMLKGKDDRKKSIREKPKVSESDNNEGSSLPSQHKQLDVGEEVYDDVDASDFPPPPAEMSQGMSVGRAKTEEKDPKKLKKQEKEEKDLRKKFKYDGEIRVLYSTKVASSLTSKKWGARDLQIKPGESLEVIQSTDDTKVLCRNEEGKYGYVLRSYLVDNDGEIYDDIADGCIYDND
